The assay can be described thus: qHTS Assay for Lipid Storage Modulators in Drosophila S3 Cells.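 On cell number change: cells counted by Cell Tracker Red CMTPX staining in the red channel.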 As to conditions: BODIPY lipid droplet fluorescence, 18-24 h; for cell number change: measured here: cell count max response, cells fed with added oleic acid. The gist of the method: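 Laser-scanning cytometry quantifies lipid droplet accumulation (500–530 nm total intensity; droplet/cell object ratio) in oleic acid-fed (400 uM added) Drosophila S3 cells treated with a concentration series. 20 uM Triacsin C defined 100% inhibition.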
Background: Quantitative high-throughput screening tests each substance at several concentrations.

The mark [1] stands for this setting: measured here: lipid fluorescence (Fed channel) AC50, cells fed with added oleic acid.
Setting [2] is: measured here: cell number channel AC50, cells fed with added oleic acid.

The list shows a part of the results. Shown are side measurements of this screen, not its main read-out; they come without a call. Compounds called inactive in the main read-out are mostly missing here. Potencies come from curve fits of mixed quality, noted in brackets.

One may read the AC50 as the concentration at which the activity in the assay is half-maximal. Low values mean activity at low concentration, high ones activity only at high concentration. As to `O=C(NC1CCCN(Cc2ccc(Cl)cc2)C1)c1c(F)ccc(F)c1F` (stereo unspecified), the cell number change worked out at 8.14%. The half-maximal activity concentration (AC50) under setting [1] was 29.1 µM [rising, single point].

In the case of `O=[N+]([O-])c1ccc(-c2nc(NCC3CCCO3)c3ccccc3n2)cc1` (stereo unspecified), the cell number change was determined as 21%. Also, the AC50 under setting [1] was 0.461 µM [rising, full curve].

As to `COC(=O)C1(C)Nc2ccccc2C(=O)N1c1ccccc1OC` (stereo unspecified), the cell number change is 33.4%. Under setting [2], the half-maximal activity concentration (AC50) was 29.1 µM [rising, single point]. Moreover, the concentration at half-maximal activity (AC50) under setting [1] was 20.6 µM [rising, single point].

In the case of `C#CCOCCOCCOCCNc1nc(N2CCN(C(=O)CCCCCCCCCCNC(=O)[C@@H](CCC(=O)O)n3cc(CCCCCN)nn3)CC2)nc(N2CCN(C(=O)CCCCCCCCCCNC(=O)[C@H]([C@@H](C)CC)n3cc(CCCCCN)nn3)CC2)n1`, the cell number change was -50.9%. Also, the AC50 under setting [2] was 0.116 µM [falling, full curve, poor fit]. Besides, the AC50 under setting [1] was 0.103 µM [falling, full curve, poor fit].

`CCc1ccc(OC(=O)Cc2ccc(OC)c(S(=O)(=O)N3CCOCC3)c2)cc1`: the cell number change is -60.2%. Besides, the AC50 under setting [2] is 29.1 µM [falling, single point].

With `Cc1cc(OCCCCCNCCO)cc(C)c1Cl`, the cell number change was 7.1%.

Consider `COc1cc(/C=N/NC(=O)C2CCN(CC(O)COCc3ccccc3)CC2)cc(OC)c1OC` (stereo unspecified), for which the cell number change is -48%. Moreover, the concentration at half-maximal activity (AC50) under setting [2] was 25.9 µM [falling, partial curve, poor fit]. Also, under setting [1], the AC50 was 18.4 µM [falling, partial curve].

With `O=C(O)CSc1c(-c2ccccc2)[nH]c2ccccc12`, the cell number change was -8.08%. In addition, the AC50 under setting [1] is 6.51 µM [rising, single point].

For `COc1cc(CN(C)CC2CCCN(CCc3ccccc3F)C2)cc(Cl)c1OC` (stereo unspecified), the cell number change is 15.4%. Under setting [1], the AC50 is 23.1 µM [rising, single point].

As to `O=C(CN(c1ccc(F)cc1)S(=O)(=O)c1ccc2c(c1)OCCO2)Nc1ccccc1`, the cell number change was 122%. Further, the AC50 under setting [2] is 6.51 µM [rising, full curve]. The AC50 under setting [1] is 6.51 µM [rising, single point].

Consider `CC(NC1c2ccccc2-c2ccccc21)c1ccccc1` (stereo unspecified), for which the cell number change amounted to 33.2%. In addition, the half-maximal activity concentration (AC50) under setting [1] was 29.1 µM [rising, single point].

As for `CN(C)c1ncc(S(=O)(=O)c2ccccc2)c(-c2ccccc2Cl)n1`, the cell number change was -13.4%. Moreover, under setting [1], the concentration at half-maximal activity (AC50) was 20.6 µM [falling, single point].

For the compound `CCc1c(C(=O)N2CCN(c3ccccc3F)CC2)[nH]c(C)c1C(C)=O`, under setting [2], the half-maximal activity concentration (AC50) was 3.26 µM [rising, single point].

`CCO[C@H]1OC(C(=O)NC2CC2)=C[C@@H](C2CCCCC2)[C@@H]1CCCO`: the cell number change was 4.58%. For the same compound, under setting [1], the AC50 was 6.51 µM [rising, single point].

For the compound `O=C(OCc1ccccc1C(F)(F)F)c1cc([N+](=O)[O-])ccc1N1CCOCC1`, the cell number change was found to be 34.3%. Also, the AC50 under setting [2] is 15.8 µM [rising, single point].

For `O=C(CCc1nnc(CCCCc2ccccc2)o1)N1CCCCC1CCO` (stereo unspecified), the cell number change is 5.29%.

With `O=C(NCc1ccccc1Cl)C(=O)NCC1OCCCN1S(=O)(=O)c1cccs1` (stereo unspecified), the cell number change came out at 17.3%. The AC50 under setting [1] was 6.51 µM [rising, partial curve, poor fit].

For `O=C(CSc1ccccc1C(=O)O)NCc1ccccc1`, the cell number change is -15.1%. For the same compound, under setting [1], the AC50 is 0.651 µM [falling, full curve].

Consider `Cc1ccc(Nc2nc(Cl)nc(NC(C)(C)C)n2)cc1`, for which the cell number change is -16.6%. The AC50 under setting [1] is 29.1 µM [rising, single point].

As for `COCCn1c(SCc2cc(C(C)=O)ccc2OC)nc2cc(Cl)ccc2c1=O`, the cell number change was -4.65%. Moreover, the concentration at half-maximal activity (AC50) under setting [1] is 20.6 µM [rising, partial curve, poor fit].

Take `CCN(C(=O)COC(=O)c1cc([N+](=O)[O-])ccc1N1CCOCC1)c1ccccc1`: the cell number change is -16.6%. The AC50 under setting [1] was 4.11 µM [falling, full curve].

Regarding `CS(=O)(=O)N(CC(=O)NCc1ccccc1Cl)Cc1ccccc1`, the cell number change was -31%. Also, the half-maximal activity concentration (AC50) under setting [2] was 16.4 µM [falling, single point]. The AC50 under setting [1] is 16.4 µM [falling, partial curve].

Turning to `COc1cc(C(=O)NCc2nnc(SCC(=O)c3ccccc3)o2)cc(OC)c1OC`, the cell number change is -10.5%. For the same compound, the AC50 under setting [1] was 29.1 µM [rising, single point].

For the compound `CN(CC(=O)N1CCOCC1)S(=O)(=O)c1ccc2ccccc2c1`, the cell number change amounted to 19.4%. In addition, the AC50 under setting [1] was 29.1 µM [falling, single point].

As for `CC(=O)c1ccc(NC(=O)C(C)Sc2ccccn2)cc1` (stereo unspecified), the cell number change turned out to be 44.1%. Also, the AC50 under setting [2] is 23.1 µM [rising, single point].

As to `CSc1nccc(Nc2ccccc2)c1C#N`, the cell number change was found to be 0.279%. Further, under setting [1], the AC50 was 5.17 µM [falling, single point].

`CCc1ccc(NC(=O)COC(=O)c2cccs2)cc1`: the cell number change is -6.94%. In addition, the AC50 under setting [1] is 0.116 µM [rising, full curve, poor fit].

In the case of `CC(=O)c1ccc(NC(=O)CSc2nnc(NC(=O)CN3CCOCC3)s2)cc1`, the cell number change is 5.21%. For the same compound, the concentration at half-maximal activity (AC50) under setting [1] was 0.146 µM [falling, full curve, poor fit].

In the case of `N=c1c(C(=O)NC2CCCC2)cc2c(=O)n3ccccc3nc2n1CC1CCCO1` (stereo unspecified), the cell number change was found to be 18.4%. The AC50 under setting [1] was 5.62 µM [falling, single point].

For `CC(=O)Nc1ccc(NC(=O)C2CCCN2C(=O)Nc2cccc(F)c2)cc1` (stereo unspecified), the cell number change is -11.8%.

With `COc1ccc(N2C(=O)CSC2c2ccncc2)cc1` (stereo unspecified), the cell number change amounted to 19.1%. In addition, under setting [1], the concentration at half-maximal activity (AC50) was 16.4 µM [rising, partial curve].

With `C/C=C\C=C/C(=O)Nc1cccc(C2=NOC3(C2)C[C@@H](C(N)=O)N(C(=O)CCCCC)C3)c1` (stereo partly specified), the cell number change is 30.1%. Besides, the AC50 under setting [2] is 25.9 µM [rising, partial curve]. The AC50 under setting [1] was 20.6 µM [rising, single point].

As for `Cc1ccc(C(OCC(O)CN2CCCCC2)c2ccccc2)cc1` (stereo unspecified), the cell number change was determined as 5.86%. The half-maximal activity concentration (AC50) under setting [1] was 6.51 µM [rising, single point].

As for `COc1ccc(-c2cc3nc(-c4ccccc4)cc(N4CCC5(CC4)OCCO5)n3n2)cc1`, the cell number change was -16.4%.

Take `COc1ccc(-n2c(C)nnc2SCC(=O)N2CCOCC2)cc1`: the cell number change is -15%.

On to `CC(OC(=O)C1CCN(c2ccc(C(F)(F)F)cn2)CC1)C(=O)c1ccccc1` (stereo unspecified), for which the concentration at half-maximal activity (AC50) under setting [2] was 0.0291 µM [falling, full curve, poor fit].

Take `Cc1ccc2c(c1C)OC(=O)CC2c1ccccc1` (stereo unspecified): the cell number change is -1.92%. In addition, the half-maximal activity concentration (AC50) under setting [1] was 6.51 µM [rising, single point].

For `Cc1[nH]c2ccccc2c1/C=N\NC(=O)Cn1nnc(-c2ccccc2)n1`, the cell number change was -10.5%. Further, the AC50 under setting [1] is 0.517 µM [rising, full curve].

`Cc1cc(C)cc(NC(=O)C2CCC(CNC(=O)[C@@H]3Cc4ccccc4CN3)CC2)c1` (stereo partly specified): the cell number change is 4.89%. Besides, the half-maximal activity concentration (AC50) under setting [2] is 0.0651 µM [rising, full curve, poor fit].

`CCn1ccnc1CNCc1cn(-c2cc(C)ccc2C)nc1-c1ccccc1`: the cell number change was found to be 1.4%. Further, under setting [1], the AC50 is 0.411 µM [falling, single point].

Consider `Cc1ccc(C(=O)OCC(=O)NCC2CCCO2)c(C)c1` (stereo unspecified), for which the cell number change is -5.73%. Besides, under setting [2], the AC50 was 6.51 µM [falling, single point].

Take `CCOc1ccc(C2CC(c3cccc(C)c3)n3ncnc3N2)cc1` (stereo unspecified): the cell number change is -11.4%. Under setting [1], the AC50 was 2.06 µM [rising, partial curve, poor fit].

As to `COc1ccc(-c2nc(CS(=O)CC(=O)NC3CCCCC3)c(C)o2)cc1OC` (stereo unspecified), the cell number change came out at 1.18%.

Regarding `COc1ccc(S(=O)(=O)N2CCN(C(=O)c3cccs3)CC2)cc1OC`, the cell number change was -9.23%.

Consider `O=C1CCC/C(=N/NC(=O)C2CCN(S(=O)(=O)c3cccs3)CC2)C1`, for which the cell number change is -8.38%. Further, the half-maximal activity concentration (AC50) under setting [1] was 0.92 µM [falling, full curve].

In the case of `CCCNC(=O)Nc1ccccc1C(=O)Nc1ccc(OC)cc1`, the half-maximal activity concentration (AC50) by setting is: under setting [2], 6.51 µM [rising, single point]; under setting [1], 3.66 µM [rising, partial curve].

As to `CN(C(=O)COC(=O)c1cc(S(=O)(=O)N2CCOCC2)ccc1F)C1CCS(=O)(=O)C1` (stereo unspecified), the cell number change is -19.7%. The concentration at half-maximal activity (AC50) under setting [1] is 0.651 µM [falling, full curve].

Regarding `COC(=O)CNC(c1ccccc1)c1cc(Br)ccc1NC(=O)OCc1ccccc1` (stereo unspecified), the cell number change stood at 37.1%. Under setting [2], the AC50 is 29.1 µM [rising, single point].

`O=S(=O)(c1ccccc1)N1CCN(C(=S)NCCCN2CCOCC2)CC1`: the cell number change was -19.5%.

Turning to `CNC(=O)c1ccsc1NC(=O)c1coc2ccccc2c1=O`, the cell number change was -9.53%. For the same compound, the AC50 under setting [1] was 1.64 µM [falling, partial curve].

Take `Cc1noc(C)c1C(=O)N1CCCC1`: the cell number change is -125%. Moreover, under setting [2], the AC50 was 14.6 µM [falling, partial curve].

Take `COc1cc(C(C)=O)ccc1OCC(=O)Nc1cc(Cl)ccc1-n1cncn1`: the cell number change was -0.213%. The AC50 under setting [1] was 4.11 µM [falling, partial curve].

Take `COc1ccc2oc(C)c(C(=O)c3ccc([N+](=O)[O-])cc3)c2c1`: the cell number change is 2.35%.

`COc1ccc(CC(=O)Oc2ccc(Cl)cc2Br)cc1S(=O)(=O)N1CCOCC1`: the cell number change stood at 1%.

Turning to `O=c1[nH]c2ccc(S(=O)(=O)N3CCCCC3)cc2[nH]1`, the cell number change is -34.3%. The AC50 under setting [2] was 29.1 µM [falling, single point]. The concentration at half-maximal activity (AC50) under setting [1] was 0.0231 µM [rising, full curve, poor fit].

For the compound `CSCCC(NC(=O)c1ccco1)C(=O)NCc1ccc2c(c1)OCO2` (stereo unspecified), the cell number change amounted to 55.5%. In addition, the half-maximal activity concentration (AC50) under setting [2] is 8.2 µM [rising, partial curve].

`CCN1C(=O)C(=O)N(CC(=O)NC(C)CCc2ccccc2)C1=O` (stereo unspecified): the cell number change is -23.5%.

As for `NS(=O)(=O)c1cccc(NC(=O)CSc2nc3ccccc3c(=O)n2CC2CCCO2)c1` (stereo unspecified), the cell number change was -24%.

On to `O=C(c1ccc(Cl)c(Cl)c1)N1CCC(=O)N(C(COCc2ccccc2)Cc2ccccc2)CC1` (stereo unspecified), for which the cell number change was determined as 12%. The half-maximal activity concentration (AC50) under setting [1] was 10.3 µM [rising, single point].

On to `Cc1ccc(SCc2ccc(C(=O)Nc3nccs3)o2)cc1`, for which the cell number change was found to be 25.5%. In addition, under setting [1], the concentration at half-maximal activity (AC50) was 1.58 µM [rising, partial curve, poor fit].

With `O=C(CSc1nnc(-c2cccnc2)n1C1CCCCC1)NC1CCCCC1`, the cell number change is -3.85%. Further, the concentration at half-maximal activity (AC50) under setting [2] is 0.13 µM [falling, full curve, poor fit]. Moreover, the AC50 under setting [1] was 0.231 µM [rising, full curve, poor fit].

The values above are taken from PubChem BioAssay AID2685 (National Center for Advancing Translational Sciences (NCATS), 2010).
